# Reference: the supplement of paper PMC8728848
# The other results are listed elsewhere or left out.
# B1: HFR-3 (Triticum aestivum) (protein)
# chain: MKGLLLCALALAFAAVTTHAQLQSCPTRCGKQADGMECPNNLCCSKDGYCGLGVDYCSAGAGCQSGACYDNKICGAQANGTLCRNNHCCSSGGRCGYGREYCSNGCQGGPCWADLKCGHLDNGKLCPNNLCCSQYGYCGLGPEFCGTGCQNGACSTDKPCGNKANGAPCTNNYCCSQYGSCGLGKDYCGTGCQNGACN
# Tests used:
# Assay in all cases: glycan array binding signal (z-score within array); higher = stronger binding
# Details in all cases: glycan notation: IUPAC condensed, linker removed
# [1] = biological target: Fuc(a1-2)Gal
# In short: (§1)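 Glycan array data were curated from 3228 arrays in the Consortium for Functional Glycomics database and kept only where the protein sequence was available. Glycan names were converted to IUPAC-condensed notation, and columns mapping to the same glycan were averaged. The binding signal is a within-array Z-score, averaged across arrays of the same protein sequence at different concentrations or buffers and across linkers. Negative Z-scores can be read as non-binding.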
# [2] = biological target: Fuc(a1-2)Gal(b1-3)GalNAc
# In short: as §1
# [3] = biological target: Fuc(a1-2)Gal(b1-3)GalNAc(a1-3)[Fuc(a1-2)]Gal(b1-4)Glc
# In short: as §1
# [4] = biological target: Fuc(a1-2)Gal(b1-3)GalNAc(a1-3)[Fuc(a1-2)]Gal(b1-4)GlcNAc
# In short: as §1
# [5] = biological target: Fuc(a1-2)Gal(b1-3)GalNAc(b1-3)Gal
# In short: as §1
# [6] = biological target: Fuc(a1-2)Gal(b1-3)GalNAc(b1-3)Gal(a1-4)Gal(b1-4)Glc
# In short: as §1
# [7] = biological target: Fuc(a1-2)Gal(b1-3)GalNAc(b1-4)[Neu5Ac(a2-3)]Gal(b1-4)Glc
# In short: as §1
# [8] = biological target: Fuc(a1-2)Gal(b1-3)GlcNAc
# In short: as §1
# [9] = biological target: Fuc(a1-2)Gal(b1-3)GlcNAc(b1-2)Man(a1-3)[Fuc(a1-2)Gal(b1-3)GlcNAc(b1-2)Man(a1-6)]Man(b1-4)GlcNAc(b1-4)GlcNAc
# In short: as §1
# [10] = biological target: Fuc(a1-2)Gal(b1-3)GlcNAc(b1-2)Man(a1-3)[Fuc(a1-2)Gal(b1-3)GlcNAc(b1-2)Man(a1-6)]Man(b1-4)GlcNAc(b1-4)[Fuc(a1-6)]GlcNAc
# In short: as §1
# [11] = biological target: Fuc(a1-2)Gal(b1-3)GlcNAc(b1-3)Gal(b1-4)Glc
# In short: as §1
# [12] = biological target: Fuc(a1-2)Gal(b1-3)GlcNAc(b1-3)GalNAc
# In short: as §1
# [13] = biological target: Fuc(a1-2)Gal(b1-3)GlcNAc(b1-3)[Fuc(a1-2)Gal(b1-3)GlcNAc(b1-6)]GalNAc
# In short: as §1
# [14] = biological target: Fuc(a1-2)Gal(b1-3)GlcNAc(b1-3)[Gal(b1-4)GlcNAc(b1-6)]Gal(b1-4)Glc
# In short: as §1
# [15] = biological target: Fuc(a1-2)Gal(b1-3)GlcNAc(b1-3)[Neu5Ac(a2-6)Gal(b1-4)GlcNAc(b1-6)]Gal(b1-4)Glc
# In short: as §1
# [16] = biological target: Fuc(a1-2)Gal(b1-3)GlcNAc6S
# In short: as §1
# [17] = biological target: Fuc(a1-2)Gal(b1-3)[Fuc(a1-4)]GlcNAc
# In short: as §1
# [18] = biological target: Fuc(a1-2)Gal(b1-3)[Fuc(a1-4)]GlcNAc(b1-2)Man(a1-3)[Fuc(a1-2)Gal(b1-3)[Fuc(a1-4)]GlcNAc(b1-2)Man(a1-3)]Man(b1-4)GlcNAc(b1-4)GlcNAc
# In short: as §1
# [19] = biological target: Fuc(a1-2)Gal(b1-3)[Fuc(a1-4)]GlcNAc(b1-2)Man(a1-3)[Fuc(a1-2)Gal(b1-3)[Fuc(a1-4)]GlcNAc(b1-2)Man(a1-6)]Man(b1-4)GlcNAc(b1-4)[Fuc(a1-6)]GlcNAc(b1-4)[Fuc(a1-6)]GlcNAc
# In short: as §1
# [20] = biological target: Fuc(a1-2)Gal(b1-3)[Fuc(a1-4)]GlcNAc(b1-3)[Fuc(a1-3)[Gal(b1-4)]GlcNAc(b1-6)]Gal(b1-4)Glc
# In short: as §1
# [21] = biological target: Fuc(a1-2)Gal(b1-3)[Fuc(a1-4)]GlcNAc(b1-3)[Gal(b1-4)GlcNAc(b1-6)]Gal(b1-4)Glc
# In short: as §1
# [22] = biological target: Fuc(a1-2)Gal(b1-4)Glc
# In short: as §1
# [23] = biological target: Fuc(a1-2)Gal(b1-4)Glc6S
# In short: as §1
# [24] = biological target: Fuc(a1-2)Gal(b1-4)GlcNAc
# In short: as §1
# [25] = biological target: Fuc(a1-2)Gal(b1-4)GlcNAc(b1-2)Man
# In short: as §1
# [26] = biological target: Fuc(a1-2)Gal(b1-4)GlcNAc(b1-2)Man(a1-3)[Fuc(a1-2)Gal(b1-4)GlcNAc(b1-2)Man(a1-6)]Man(b1-4)GlcNAc(b1-4)GlcNAc
# In short: as §1
# [27] = biological target: Fuc(a1-2)Gal(b1-4)GlcNAc(b1-2)Man(a1-3)[Fuc(a1-2)Gal(b1-4)GlcNAc(b1-2)Man(a1-6)]Man(b1-4)GlcNAc(b1-4)[Fuc(a1-6)]GlcNAc
# In short: as §1
# [28] = biological target: Fuc(a1-2)Gal(b1-4)GlcNAc(b1-2)[Fuc(a1-2)Gal(b1-4)GlcNAc(b1-4)]Man(a1-3)[Fuc(a1-2)Gal(b1-4)GlcNAc(b1-2)Man(a1-6)]Man(b1-4)GlcNAc(b1-4)GlcNAc
# In short: as §1
# [29] = biological target: Fuc(a1-2)Gal(b1-4)GlcNAc(b1-3)Gal(b1-4)GlcNAc
# In short: as §1
# [30] = biological target: Fuc(a1-2)Gal(b1-4)GlcNAc(b1-3)Gal(b1-4)GlcNAc(b1-2)Man(a1-3)[Fuc(a1-2)Gal(b1-4)GlcNAc(b1-3)Gal(b1-4)GlcNAc(b1-2)Man(a1-6)]Man(b1-4)GlcNAc(b1-4)GlcNAc
# In short: as §1
binder,measurement,setting,value
B1,glycan array binding signal (z-score),[1],-0.524
same,glycan array binding signal (z-score),[2],-0.596
same,glycan array binding signal (z-score),[3],-1.27
same,glycan array binding signal (z-score),[4],-1.27
same,glycan array binding signal (z-score),[5],-0.52
same,glycan array binding signal (z-score),[6],0.317
same,glycan array binding signal (z-score),[7],0.436
same,glycan array binding signal (z-score),[8],-0.135
same,glycan array binding signal (z-score),[9],1.72
same,glycan array binding signal (z-score),[10],0.39
same,glycan array binding signal (z-score),[11],-0.404
same,glycan array binding signal (z-score),[12],0.672
same,glycan array binding signal (z-score),[13],-0.006
same,glycan array binding signal (z-score),[14],0.386
same,glycan array binding signal (z-score),[15],-1.35
same,glycan array binding signal (z-score),[16],0.193
same,glycan array binding signal (z-score),[17],0.192
same,glycan array binding signal (z-score),[18],1.44
same,glycan array binding signal (z-score),[19],-0.513
same,glycan array binding signal (z-score),[20],-0.893
same,glycan array binding signal (z-score),[21],-0.266
same,glycan array binding signal (z-score),[22],-0.478
same,glycan array binding signal (z-score),[23],0.283
same,glycan array binding signal (z-score),[24],0.484
same,glycan array binding signal (z-score),[25],-0.828
same,glycan array binding signal (z-score),[26],-0.43
same,glycan array binding signal (z-score),[27],-0.7
same,glycan array binding signal (z-score),[28],0.313
same,glycan array binding signal (z-score),[29],-0.482
same,glycan array binding signal (z-score),[30],1.66

# Two entries from above, bar-delimited.
binder | measurement | setting | value
B1 | glycan array binding signal (z-score) | [19] | -0.513
same | glycan array binding signal (z-score) | [21] | -0.266
